# Measured values reported in the supplement of paper PMC6411743.
# The chains behind the UniProt entries cited, without tags or fusion partners. Where a name states a change or a piece, a line headed by the entry shows the natural chain unless it says otherwise.
# UniProt O75534: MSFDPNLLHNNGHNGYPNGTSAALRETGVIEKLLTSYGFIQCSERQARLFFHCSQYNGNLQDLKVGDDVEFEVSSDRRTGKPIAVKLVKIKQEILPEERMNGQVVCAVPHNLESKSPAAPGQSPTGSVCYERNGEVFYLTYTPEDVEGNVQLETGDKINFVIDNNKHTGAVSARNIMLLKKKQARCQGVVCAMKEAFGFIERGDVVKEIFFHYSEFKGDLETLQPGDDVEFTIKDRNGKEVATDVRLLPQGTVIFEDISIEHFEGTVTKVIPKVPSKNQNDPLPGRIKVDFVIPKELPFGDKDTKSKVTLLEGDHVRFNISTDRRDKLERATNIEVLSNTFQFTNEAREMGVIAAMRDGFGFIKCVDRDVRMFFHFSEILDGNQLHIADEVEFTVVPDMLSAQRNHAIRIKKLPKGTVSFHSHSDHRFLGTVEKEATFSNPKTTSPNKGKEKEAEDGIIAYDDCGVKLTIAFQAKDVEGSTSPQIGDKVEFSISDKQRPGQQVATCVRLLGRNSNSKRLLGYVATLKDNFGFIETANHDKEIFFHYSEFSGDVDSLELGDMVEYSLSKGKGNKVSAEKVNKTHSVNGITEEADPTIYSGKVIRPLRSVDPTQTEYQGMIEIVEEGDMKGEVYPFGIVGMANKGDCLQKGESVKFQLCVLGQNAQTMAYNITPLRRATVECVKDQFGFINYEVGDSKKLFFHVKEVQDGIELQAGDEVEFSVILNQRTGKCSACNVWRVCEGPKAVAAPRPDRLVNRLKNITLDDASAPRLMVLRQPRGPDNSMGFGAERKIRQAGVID
# UniProt O95167, whole entry: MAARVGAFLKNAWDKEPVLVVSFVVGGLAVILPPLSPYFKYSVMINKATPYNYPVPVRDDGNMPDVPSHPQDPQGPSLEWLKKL
# UniProt O94826, whole entry: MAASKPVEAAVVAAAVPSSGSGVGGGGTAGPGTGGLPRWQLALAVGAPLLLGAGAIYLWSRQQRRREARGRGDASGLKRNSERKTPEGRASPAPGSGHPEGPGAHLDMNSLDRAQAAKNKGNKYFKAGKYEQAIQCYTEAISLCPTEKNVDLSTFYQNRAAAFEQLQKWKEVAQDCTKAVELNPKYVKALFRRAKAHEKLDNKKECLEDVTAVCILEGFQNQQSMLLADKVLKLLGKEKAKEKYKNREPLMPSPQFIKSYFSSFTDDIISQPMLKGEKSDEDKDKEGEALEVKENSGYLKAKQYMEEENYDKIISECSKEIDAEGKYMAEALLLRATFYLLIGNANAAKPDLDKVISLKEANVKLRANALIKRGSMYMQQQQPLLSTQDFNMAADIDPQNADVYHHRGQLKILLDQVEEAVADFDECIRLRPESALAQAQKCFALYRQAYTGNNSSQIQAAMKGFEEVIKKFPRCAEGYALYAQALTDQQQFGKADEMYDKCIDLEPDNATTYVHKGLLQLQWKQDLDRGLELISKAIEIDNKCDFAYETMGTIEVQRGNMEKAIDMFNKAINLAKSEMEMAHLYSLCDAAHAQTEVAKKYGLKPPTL
# UniProt O75312: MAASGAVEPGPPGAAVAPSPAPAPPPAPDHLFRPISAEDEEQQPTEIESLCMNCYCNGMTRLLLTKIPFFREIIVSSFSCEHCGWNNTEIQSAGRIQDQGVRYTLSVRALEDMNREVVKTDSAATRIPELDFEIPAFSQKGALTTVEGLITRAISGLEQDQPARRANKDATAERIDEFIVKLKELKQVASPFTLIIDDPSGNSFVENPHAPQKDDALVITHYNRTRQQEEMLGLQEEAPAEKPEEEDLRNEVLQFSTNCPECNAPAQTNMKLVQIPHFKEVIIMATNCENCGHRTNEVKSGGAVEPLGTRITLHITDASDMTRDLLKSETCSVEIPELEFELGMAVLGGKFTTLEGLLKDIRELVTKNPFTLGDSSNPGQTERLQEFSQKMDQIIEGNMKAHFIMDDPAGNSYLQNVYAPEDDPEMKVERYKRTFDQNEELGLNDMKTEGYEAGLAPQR
# UniProt O75319: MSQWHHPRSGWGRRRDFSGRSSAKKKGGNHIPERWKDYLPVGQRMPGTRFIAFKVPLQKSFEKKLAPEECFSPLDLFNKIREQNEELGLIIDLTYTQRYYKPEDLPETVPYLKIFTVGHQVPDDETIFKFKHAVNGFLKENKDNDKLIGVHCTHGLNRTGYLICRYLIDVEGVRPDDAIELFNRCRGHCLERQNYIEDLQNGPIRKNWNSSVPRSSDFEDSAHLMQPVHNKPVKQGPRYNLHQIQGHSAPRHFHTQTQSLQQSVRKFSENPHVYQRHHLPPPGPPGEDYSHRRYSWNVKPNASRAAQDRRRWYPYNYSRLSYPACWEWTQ
# UniProt O95376: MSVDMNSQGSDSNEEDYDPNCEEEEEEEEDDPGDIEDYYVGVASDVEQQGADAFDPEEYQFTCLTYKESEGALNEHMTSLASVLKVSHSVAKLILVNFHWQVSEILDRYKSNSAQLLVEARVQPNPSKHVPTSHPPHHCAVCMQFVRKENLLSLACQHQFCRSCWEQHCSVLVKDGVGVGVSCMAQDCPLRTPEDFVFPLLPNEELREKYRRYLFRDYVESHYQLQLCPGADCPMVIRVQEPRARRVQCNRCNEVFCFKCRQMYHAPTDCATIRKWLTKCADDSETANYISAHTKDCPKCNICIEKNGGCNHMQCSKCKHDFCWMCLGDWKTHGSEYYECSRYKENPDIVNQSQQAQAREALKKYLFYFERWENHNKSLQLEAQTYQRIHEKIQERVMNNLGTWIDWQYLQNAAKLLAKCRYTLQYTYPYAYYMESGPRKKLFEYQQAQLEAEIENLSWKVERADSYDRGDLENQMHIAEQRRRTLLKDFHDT
# UniProt O75828: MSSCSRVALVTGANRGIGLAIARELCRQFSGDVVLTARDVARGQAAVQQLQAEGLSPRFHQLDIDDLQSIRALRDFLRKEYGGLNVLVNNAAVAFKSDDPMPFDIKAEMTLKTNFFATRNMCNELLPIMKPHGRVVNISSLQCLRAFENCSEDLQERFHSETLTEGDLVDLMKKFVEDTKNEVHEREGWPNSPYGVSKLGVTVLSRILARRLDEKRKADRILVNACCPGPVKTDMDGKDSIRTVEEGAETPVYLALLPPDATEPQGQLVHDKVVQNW
# UniProt O95453: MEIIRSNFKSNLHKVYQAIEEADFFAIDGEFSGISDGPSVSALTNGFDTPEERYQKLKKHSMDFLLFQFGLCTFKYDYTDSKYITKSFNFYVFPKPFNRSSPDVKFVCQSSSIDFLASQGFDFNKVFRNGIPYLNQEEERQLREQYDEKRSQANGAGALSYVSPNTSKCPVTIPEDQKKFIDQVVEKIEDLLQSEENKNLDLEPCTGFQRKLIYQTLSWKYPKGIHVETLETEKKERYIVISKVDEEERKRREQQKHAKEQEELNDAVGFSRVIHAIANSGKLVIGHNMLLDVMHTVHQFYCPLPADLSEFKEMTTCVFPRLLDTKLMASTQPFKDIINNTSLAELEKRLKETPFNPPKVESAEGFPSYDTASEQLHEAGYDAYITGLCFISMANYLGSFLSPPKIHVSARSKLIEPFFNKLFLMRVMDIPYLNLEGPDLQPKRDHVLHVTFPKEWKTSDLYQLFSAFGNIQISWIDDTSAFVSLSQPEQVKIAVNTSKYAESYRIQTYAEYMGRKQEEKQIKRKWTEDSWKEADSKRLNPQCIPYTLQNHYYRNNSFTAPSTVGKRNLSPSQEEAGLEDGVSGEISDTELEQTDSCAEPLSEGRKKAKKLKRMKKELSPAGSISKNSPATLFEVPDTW
# UniProt O75369, whole entry: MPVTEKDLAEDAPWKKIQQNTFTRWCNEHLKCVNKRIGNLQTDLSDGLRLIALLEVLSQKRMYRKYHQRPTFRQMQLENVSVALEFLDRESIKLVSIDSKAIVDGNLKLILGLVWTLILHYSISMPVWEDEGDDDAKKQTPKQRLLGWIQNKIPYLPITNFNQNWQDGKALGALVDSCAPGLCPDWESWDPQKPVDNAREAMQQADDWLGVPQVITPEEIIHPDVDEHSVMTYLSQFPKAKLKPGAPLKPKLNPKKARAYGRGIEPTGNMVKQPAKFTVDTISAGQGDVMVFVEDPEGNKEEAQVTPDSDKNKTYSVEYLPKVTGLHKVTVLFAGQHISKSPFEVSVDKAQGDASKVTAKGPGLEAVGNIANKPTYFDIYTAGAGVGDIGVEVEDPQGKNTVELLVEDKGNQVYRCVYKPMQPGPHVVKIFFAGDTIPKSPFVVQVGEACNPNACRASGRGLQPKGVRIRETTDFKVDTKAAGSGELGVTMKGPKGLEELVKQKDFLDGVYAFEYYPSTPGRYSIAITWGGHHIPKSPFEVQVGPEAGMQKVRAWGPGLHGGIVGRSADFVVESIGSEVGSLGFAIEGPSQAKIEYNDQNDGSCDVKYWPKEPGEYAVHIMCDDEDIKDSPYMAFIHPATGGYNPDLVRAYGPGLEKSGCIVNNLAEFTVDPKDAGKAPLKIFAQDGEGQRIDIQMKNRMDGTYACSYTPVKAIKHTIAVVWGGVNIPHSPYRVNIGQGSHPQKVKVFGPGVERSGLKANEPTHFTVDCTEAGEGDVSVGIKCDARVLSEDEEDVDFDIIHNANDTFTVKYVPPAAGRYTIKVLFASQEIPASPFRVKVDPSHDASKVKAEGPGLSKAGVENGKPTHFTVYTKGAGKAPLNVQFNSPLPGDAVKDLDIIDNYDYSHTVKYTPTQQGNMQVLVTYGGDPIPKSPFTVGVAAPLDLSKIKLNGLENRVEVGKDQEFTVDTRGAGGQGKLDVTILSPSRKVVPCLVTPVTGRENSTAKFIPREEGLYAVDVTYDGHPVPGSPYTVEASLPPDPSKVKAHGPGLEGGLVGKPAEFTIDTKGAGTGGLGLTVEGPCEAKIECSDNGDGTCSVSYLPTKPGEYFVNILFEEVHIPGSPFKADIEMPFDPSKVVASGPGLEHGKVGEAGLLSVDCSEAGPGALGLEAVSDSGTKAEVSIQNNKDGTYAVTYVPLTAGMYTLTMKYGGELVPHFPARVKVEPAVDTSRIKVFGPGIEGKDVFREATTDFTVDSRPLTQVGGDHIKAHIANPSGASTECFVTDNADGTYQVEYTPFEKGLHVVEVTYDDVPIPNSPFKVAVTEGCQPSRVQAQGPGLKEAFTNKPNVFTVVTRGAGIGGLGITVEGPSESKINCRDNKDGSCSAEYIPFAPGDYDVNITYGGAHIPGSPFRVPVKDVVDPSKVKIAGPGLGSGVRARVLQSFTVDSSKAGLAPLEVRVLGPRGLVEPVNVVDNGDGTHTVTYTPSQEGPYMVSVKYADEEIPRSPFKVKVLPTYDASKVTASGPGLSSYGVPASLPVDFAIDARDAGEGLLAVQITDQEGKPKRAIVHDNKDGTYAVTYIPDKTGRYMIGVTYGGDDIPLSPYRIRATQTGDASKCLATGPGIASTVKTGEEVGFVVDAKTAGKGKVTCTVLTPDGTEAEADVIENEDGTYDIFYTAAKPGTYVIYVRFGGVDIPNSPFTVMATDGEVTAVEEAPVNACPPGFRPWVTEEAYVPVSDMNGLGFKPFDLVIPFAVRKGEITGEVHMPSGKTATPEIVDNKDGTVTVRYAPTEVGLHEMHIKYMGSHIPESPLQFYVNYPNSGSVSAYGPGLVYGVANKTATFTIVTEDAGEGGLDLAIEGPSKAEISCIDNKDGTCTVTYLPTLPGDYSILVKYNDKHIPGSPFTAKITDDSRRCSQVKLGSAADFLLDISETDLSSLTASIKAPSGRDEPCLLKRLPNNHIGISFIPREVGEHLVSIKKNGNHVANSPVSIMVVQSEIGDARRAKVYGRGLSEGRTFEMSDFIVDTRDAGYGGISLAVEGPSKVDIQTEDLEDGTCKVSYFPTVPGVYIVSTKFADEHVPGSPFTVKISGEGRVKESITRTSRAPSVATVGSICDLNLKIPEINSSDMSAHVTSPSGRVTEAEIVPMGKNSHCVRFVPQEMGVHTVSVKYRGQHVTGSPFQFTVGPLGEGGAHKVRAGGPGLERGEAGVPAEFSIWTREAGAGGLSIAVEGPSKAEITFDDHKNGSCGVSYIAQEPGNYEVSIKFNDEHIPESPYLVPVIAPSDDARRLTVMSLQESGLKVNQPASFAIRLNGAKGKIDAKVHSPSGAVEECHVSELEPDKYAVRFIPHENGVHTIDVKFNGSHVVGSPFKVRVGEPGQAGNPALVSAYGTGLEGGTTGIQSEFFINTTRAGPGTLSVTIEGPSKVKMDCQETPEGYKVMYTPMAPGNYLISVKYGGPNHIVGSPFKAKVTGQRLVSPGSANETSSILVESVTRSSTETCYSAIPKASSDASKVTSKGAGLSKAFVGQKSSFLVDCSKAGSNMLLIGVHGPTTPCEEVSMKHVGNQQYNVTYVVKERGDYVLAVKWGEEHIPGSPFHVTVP
# UniProt O60930: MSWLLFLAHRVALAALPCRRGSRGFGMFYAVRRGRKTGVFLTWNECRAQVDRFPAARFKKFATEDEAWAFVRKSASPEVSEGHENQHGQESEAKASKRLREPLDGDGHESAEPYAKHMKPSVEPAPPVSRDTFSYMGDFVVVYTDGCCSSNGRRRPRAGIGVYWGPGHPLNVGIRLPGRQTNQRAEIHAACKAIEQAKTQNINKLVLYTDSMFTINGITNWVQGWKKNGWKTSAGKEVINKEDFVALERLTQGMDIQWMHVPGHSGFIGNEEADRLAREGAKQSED
# ± gives the standard deviation of the averaged measurements. The entries are a selection whose mix differs from that of the whole data set.
# Compound: Nc1ncnc2c1ncn2[C@@H]1O[C@H](COP(=O)(O)OP(=O)(O)OP(=O)(O)O)[C@@H](O)[C@H]1O [adenosine triphosphate]
# Assay: NP40-soluble protein abundance relative to vehicle (solubility fold change) (ratio); higher = more soluble protein in presence of ATP
# In short: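 Across three independent experiments, values are fold changes against the detergent-processed vehicle for each replicate, based on vsn-normalised intensities. The samples were Jurkat crude lysate treated with eight concentrations (0.1 to 10 mM) for 10 min at room temperature and then 3 min at 37 °C. Lysate was solubilised with 0.8% NP40 and benzonase, ultracentrifuged, and the supernatant analysed by TMT-labelled LC-MS/MS.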
Target,NP40-soluble protein abundance (concentration: 1mM),NP40-soluble protein abundance (concentration: 2mM),NP40-soluble protein abundance (concentration: 4mM),NP40-soluble protein abundance (concentration: 6mM),NP40-soluble protein abundance (concentration: 8mM),NP40-soluble protein abundance (concentration: 10mM)
PRMT3 (UniProt O60678),1.05 ± 0.089,1.01 ± 0.068,0.996 ± 0.065,0.937 ± 0.089,1.03 ± 0.011,1.01 ± 0.056
ZBED4 (UniProt O75132),1.05 ± 0.062,1.02 ± 0.074,1.02 ± 0.032,1.02 ± 0.033,1.01 ± 0.046,1 ± 0.04
UniProt O75528,0.996 ± 0.038,1.02 ± 0.025,1.06 ± 0.029,1.09 ± 0.036,1.09 ± 0.018,1.07 ± 0.025
UniProt O75534 and related entries,0.986 ± 0.024,0.974 ± 0.04,0.943 ± 0.016,0.958 ± 0.058,0.973 ± 0.026,0.954 ± 0.04
UniProt O60508 and related entries,1.08 ± 0.087,1.04 ± 0.043,1.06 ± 0.044,1.06 ± 0.025,1.14 ± 0.072,1.14 ± 0.043
UniProt O60733 and related entries,0.826 ± 0.0098,0.844 ± 0.012,0.72 ± 0.019,0.886 ± 0.014,0.81 ± 0.026,0.806 ± 0.081
UniProt O95466-2,0.955 ± 0.062,0.946 ± 0.062,0.922 ± 0.071,0.953 ± 0.051,0.914 ± 0.045,0.936 ± 0.035
UniProt O95167 and related entries,0.855 ± 0.14,0.803 ± 0.11,0.777 ± 0.15,0.794 ± 0.13,0.828 ± 0.15,0.699 ± 0.096
UniProt O75582 and related entries,1.04 ± 0.041,1.06 ± 0.061,1.04 ± 0.06,1.04 ± 0.075,1.05 ± 0.054,1.04 ± 0.036
UniProt O60566 and related entries,1.02 ± 0.021,1.01 ± 0.018,0.985 ± 0.02,0.988 ± 0.033,0.979 ± 0.021,0.993 ± 0.021
RPP14 (UniProt O95059),0.985 ± 0.038,0.965 ± 0.031,0.995 ± 0.11,0.924 ± 0.024,1.09 ± 0.095,1.11 ± 0.094
BRD4 (UniProt O60885),0.999 ± 0.037,1.02 ± 0.028,1.01 ± 0.015,1.06 ± 0.02,1 ± 0.028,1.03 ± 0.016
RNGTT (UniProt O60942),0.997 ± 0.026,1 ± 0.04,0.988 ± 0.035,0.992 ± 0.053,0.965 ± 0.038,0.995 ± 0.041
UniProt O94826,0.966 ± 0.02,0.971 ± 0.0099,0.9514 ± 0.0085,0.9994 ± 0.005,0.941 ± 0.017,0.947 ± 0.034
NPM3 (UniProt O75607),1.03 ± 0.074,1 ± 0.065,1.06 ± 0.038,1.04 ± 0.037,1.06 ± 0.028,1.08 ± 0.035
UniProt O75608 and related entries,0.909 ± 0.036,0.96 ± 0.067,0.902 ± 0.027,0.952 ± 0.06,0.91 ± 0.0094,0.877 ± 0.079
CTSV (UniProt O60911),1.06 ± 0.062,0.999 ± 0.048,1.03 ± 0.11,1.01 ± 0.026,1.01 ± 0.1,0.94 ± 0.031
DNAJC8 (UniProt O75937),1 ± 0.086,0.969 ± 0.031,1.03 ± 0.048,1.1 ± 0.095,1.11 ± 0.046,0.949 ± 0.14
SNX4 (UniProt O95219),1.02 ± 0.0059,0.967 ± 0.11,1.09 ± 0.076,1.01 ± 0.049,0.94 ± 0.084,1 ± 0.15
UniProt O75312,0.952 ± 0.045,0.979 ± 0.012,0.952 ± 0.041,1.01 ± 0.029,0.919 ± 0.031,0.937 ± 0.026

# Some of the entries above in another layout:
Target	NP40-soluble protein abundance (concentration: 1mM)	NP40-soluble protein abundance (concentration: 2mM)	NP40-soluble protein abundance (concentration: 4mM)	NP40-soluble protein abundance (concentration: 6mM)	NP40-soluble protein abundance (concentration: 8mM)	NP40-soluble protein abundance (concentration: 10mM)
UniProt O75534 and related entries	0.986 ± 0.024	0.974 ± 0.04	0.943 ± 0.016	0.958 ± 0.058	0.973 ± 0.026	0.954 ± 0.04
UniProt O60508 and related entries	1.08 ± 0.087	1.04 ± 0.043	1.06 ± 0.044	1.06 ± 0.025	1.14 ± 0.072	1.14 ± 0.043
UniProt O60733 and related entries	0.826 ± 0.0098	0.844 ± 0.012	0.72 ± 0.019	0.886 ± 0.014	0.81 ± 0.026	0.806 ± 0.081
UniProt O95466-2	0.955 ± 0.062	0.946 ± 0.062	0.922 ± 0.071	0.953 ± 0.051	0.914 ± 0.045	0.936 ± 0.035
UniProt O95167 and related entries	0.855 ± 0.14	0.803 ± 0.11	0.777 ± 0.15	0.794 ± 0.13	0.828 ± 0.15	0.699 ± 0.096
UniProt O75582 and related entries	1.04 ± 0.041	1.06 ± 0.061	1.04 ± 0.06	1.04 ± 0.075	1.05 ± 0.054	1.04 ± 0.036
RPP14 (UniProt O95059)	0.985 ± 0.038	0.965 ± 0.031	0.995 ± 0.11	0.924 ± 0.024	1.09 ± 0.095	1.11 ± 0.094
BRD4 (UniProt O60885)	0.999 ± 0.037	1.02 ± 0.028	1.01 ± 0.015	1.06 ± 0.02	1 ± 0.028	1.03 ± 0.016
RNGTT (UniProt O60942)	0.997 ± 0.026	1 ± 0.04	0.988 ± 0.035	0.992 ± 0.053	0.965 ± 0.038	0.995 ± 0.041
UniProt O94826	0.966 ± 0.02	0.971 ± 0.0099	0.9514 ± 0.0085	0.9994 ± 0.005	0.941 ± 0.017	0.947 ± 0.034
UniProt O75608 and related entries	0.909 ± 0.036	0.96 ± 0.067	0.902 ± 0.027	0.952 ± 0.06	0.91 ± 0.0094	0.877 ± 0.079
CTSV (UniProt O60911)	1.06 ± 0.062	0.999 ± 0.048	1.03 ± 0.11	1.01 ± 0.026	1.01 ± 0.1	0.94 ± 0.031
DNAJC8 (UniProt O75937)	1 ± 0.086	0.969 ± 0.031	1.03 ± 0.048	1.1 ± 0.095	1.11 ± 0.046	0.949 ± 0.14
UniProt O75312	0.952 ± 0.045	0.979 ± 0.012	0.952 ± 0.041	1.01 ± 0.029	0.919 ± 0.031	0.937 ± 0.026

# (further entries)

Target,NP40-soluble protein abundance (concentration: 1mM),NP40-soluble protein abundance (concentration: 2mM),NP40-soluble protein abundance (concentration: 4mM),NP40-soluble protein abundance (concentration: 6mM),NP40-soluble protein abundance (concentration: 8mM),NP40-soluble protein abundance (concentration: 10mM)
NDUFS3 (UniProt O75489),0.9574 ± 0.0069,0.969 ± 0.028,0.952 ± 0.028,0.927 ± 0.061,0.98 ± 0.066,0.95 ± 0.042
KIF4A (UniProt O95239),0.988 ± 0.031,0.981 ± 0.019,0.9679 ± 0.0069,1.01 ± 0.021,0.964 ± 0.011,0.965 ± 0.0038
UniProt O75319 and related entries,1.16 ± 0.013,1.16 ± 0.0082,1.4 ± 0.19,1.39 ± 0.039,1.48 ± 0.17,1.55 ± 0.11
UniProt O95243 and related entries,1.03 ± 0.042,1.03 ± 0.069,1.11 ± 0.069,1.08 ± 0.067,1.12 ± 0.07,1.17 ± 0.034
RANBP6 (UniProt O60518),0.956 ± 0.094,0.928 ± 0.091,1.01 ± 0.061,0.929 ± 0.13,0.924 ± 0.06,0.975 ± 0.035
UniProt O94964-2,1.09 ± 0.067,1.04 ± 0.068,0.99 ± 0.055,1.06 ± 0.17,1.07 ± 0.04,1.07 ± 0.041
ARIH2 (UniProt O95376),0.961 ± 0.052,0.987 ± 0.055,0.997 ± 0.084,0.965 ± 0.068,0.955 ± 0.11,0.992 ± 0.04
UniProt O75398 and related entries,0.936 ± 0.15,1 ± 0.1,0.987 ± 0.13,1.06 ± 0.098,0.942 ± 0.083,1 ± 0.08
UniProt O95425 and related entries,1.08 ± 0.28,0.954 ± 0.029,1.15 ± 0.15,1.05 ± 0.09,1.14 ± 0.24,1.09 ± 0.14
ARL6IP5 (UniProt O75915),0.993 ± 0.04,0.951 ± 0.05,0.915 ± 0.038,1.01 ± 0.044,0.917 ± 0.027,0.923 ± 0.019
CBR3 (UniProt O75828),1.01 ± 0.028,1.05 ± 0.07,1.05 ± 0.047,1.06 ± 0.064,1 ± 0.053,0.982 ± 0.051
UniProt O95747,1 ± 0.015,1 ± 0.05,0.963 ± 0.029,0.984 ± 0.053,0.952 ± 0.047,0.953 ± 0.065
UniProt O94966-6|O94966-7|O94966-4,0.98 ± 0.027,0.99 ± 0.012,1 ± 0.046,0.958 ± 0.028,0.976 ± 0.022,0.978 ± 0.03
UniProt O95453 and related entries,0.997 ± 0.031,0.999 ± 0.026,0.979 ± 0.017,0.999 ± 0.046,0.98 ± 0.018,0.982 ± 0.019
UniProt O95235 and related entries,1.25 ± 0.06,1.29 ± 0.094,1.3 ± 0.059,1.38 ± 0.094,1.37 ± 0.081,1.43 ± 0.089
UniProt O75369-8|O75369-9|O75369 and related entries,0.961 ± 0.025,0.963 ± 0.013,0.93 ± 0.018,0.9754 ± 0.0069,0.926 ± 0.016,0.94 ± 0.027
ENDOD1 (UniProt O94919),0.936 ± 0.06,0.974 ± 0.034,0.952 ± 0.038,0.967 ± 0.028,0.944 ± 0.029,0.96 ± 0.026
UniProt O94985-2,0.924 ± 0.044,0.968 ± 0.098,0.971 ± 0.06,1.01 ± 0.084,0.9 ± 0.05,0.915 ± 0.06
UniProt O75164,1.09 ± 0.034,1.06 ± 0.058,1.12 ± 0.04,1.16 ± 0.072,1.08 ± 0.062,1.11 ± 0.025
GGCT (UniProt O75223),0.9068 ± 0.0067,0.939 ± 0.021,0.9002 ± 0.0022,0.92 ± 0.075,0.865 ± 0.017,0.919 ± 0.026

Target,NP40-soluble protein abundance (concentration: 1mM),NP40-soluble protein abundance (concentration: 2mM),NP40-soluble protein abundance (concentration: 4mM),NP40-soluble protein abundance (concentration: 6mM),NP40-soluble protein abundance (concentration: 8mM),NP40-soluble protein abundance (concentration: 10mM)
UniProt O75530,1.17 ± 0.13,1.23 ± 0.08,1.27 ± 0.081,1.18 ± 0.15,1.35 ± 0.038,1.39 ± 0.093
HIP1R (UniProt O75146),1.03 ± 0.042,1.07 ± 0.019,1.14 ± 0.029,1.19 ± 0.043,1.17 ± 0.037,1.22 ± 0.039
CCDC22 (UniProt O60826),0.961 ± 0.036,0.9488 ± 0.0077,0.964 ± 0.024,0.941 ± 0.04,0.982 ± 0.011,0.934 ± 0.012
NUP155 (UniProt O75694),1.07 ± 0.084,1.06 ± 0.097,1.06 ± 0.083,0.987 ± 0.12,1.1 ± 0.091,1.09 ± 0.059
UniProt O95782 and related entries,1.06 ± 0.081,1.08 ± 0.063,1.11 ± 0.018,1.02 ± 0.11,1.13 ± 0.017,1.15 ± 0.048
UniProt O94927,0.95 ± 0.042,0.9783 ± 0.0027,1.04 ± 0.019,0.977 ± 0.034,0.992 ± 0.027,0.992 ± 0.043
UniProt O60825 and related entries,1.05 ± 0.089,1.05 ± 0.052,1.05 ± 0.083,0.952 ± 0.14,1.04 ± 0.038,1.03 ± 0.031
UniProt O75145 and related entries,0.984 ± 0.039,0.976 ± 0.014,0.9629 ± 0.0073,1.01 ± 0.011,0.91 ± 0.011,0.936 ± 0.039
CDC123 (UniProt O75794),1.09 ± 0.059,1.09 ± 0.018,1.1 ± 0.046,1.05 ± 0.024,1.07 ± 0.031,1.07 ± 0.061
KATNA1 (UniProt O75449),1 ± 0.033,0.983 ± 0.014,0.958 ± 0.017,0.988 ± 0.023,0.982 ± 0.022,0.96 ± 0.046
UniProt O60828 and related entries,1.04 ± 0.13,1.07 ± 0.046,1.06 ± 0.079,1.18 ± 0.07,1.12 ± 0.038,1.11 ± 0.039
FRYL (UniProt O94915),1.1 ± 0.069,1.05 ± 0.036,1.07 ± 0.065,1.05 ± 0.12,1.12 ± 0.087,1.1 ± 0.11
UniProt O75182 and related entries,1.06 ± 0.11,1.03 ± 0.078,1.02 ± 0.059,1.05 ± 0.11,1.11 ± 0.1,1.09 ± 0.07
SASH3 (UniProt O75995),0.672 ± 0.2,0.609 ± 0.19,0.582 ± 0.23,0.591 ± 0.22,0.571 ± 0.24,0.553 ± 0.2
RNASEH1 (UniProt O60930),1.06 ± 0.013,1.09 ± 0.017,1.15 ± 0.1,1.13 ± 0.054,1.14 ± 0.073,1.14 ± 0.032
GLRX3 (UniProt O76003),1.01 ± 0.022,1.013 ± 0.0094,0.957 ± 0.02,1.03 ± 0.035,0.95 ± 0.048,0.948 ± 0.02
RBBP9 (UniProt O75884),0.984 ± 0.029,1.04 ± 0.0084,0.989 ± 0.073,1.01 ± 0.047,0.983 ± 0.036,1 ± 0.028
PFDN1 (UniProt O60925),0.912 ± 0.1,0.928 ± 0.075,0.922 ± 0.072,0.983 ± 0.11,0.892 ± 0.032,0.853 ± 0.092
UniProt O75460,1.02 ± 0.13,1.02 ± 0.035,1.08 ± 0.069,1.04 ± 0.082,1.02 ± 0.066,0.996 ± 0.073
MAFK (UniProt O60675),1.03 ± 0.16,0.986 ± 0.11,1.01 ± 0.08,0.983 ± 0.1,1.01 ± 0.062,0.987 ± 0.094
